Laboratory results: PubChem BioAssay AID292 (DTP/NCI, 2004)
The list shows only some results of the screen, not a fair sample: it gathers tests that were run many times, whatever their T/C, doses with no T/C, and many T/C values between a quarter and a half above the control. Further doses and runs are listed elsewhere. T/C gives the treated animals as a percentage of the vehicle group. Some doses have a count of surviving animals in place of a T/C: the source holds a T/C of zero for them, seemingly a mark for toxic or unscored doses. Some survivor counts are full or nearly so, which does not show that the dose was tolerated: the source hardly ever lists a survival T/C far under the control, and the zero likely stands for such cases as well. Survivors were counted at the toxicity check, usually on the fifth day, unless a day is given; later deaths do not show. Schedule codes are those of the source, read here as Q, the interval in days (D) or hours (H), X, the number of doses. Some entries hold several experiments; their values stand side by side, smallest first. Where survival is the endpoint, this PubChem deposit counts one and a half times the control or more as active, and values a quarter to a half above the control carry no call in these data; other NCI protocols may use other cut-offs. Additions like (4×) say how often a value occurs here. Some T/C values carry the count of animals alive at the toxicity check (mostly the fifth day); without a count, all were alive then.

Test system: B6C3F1 mice, ip Sarcoma M5076, median survival T/C
Experiment: NCI In Vivo Anticancer Drug Screen. Data for tumor model Sarcoma M5076 (intraperitoneal) in B6C3F1 mice
Settings: T/C endpoint: median survival time, higher T/C = longer survival
Outline: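 Survival measured in treated (T) and vehicle control (C) mice with transplantable tumour; result given as T divided by C.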

[1] = dose: 400.0 mg/kg/injection, schedule: Q04DX004 (ip), vehicle: Klucel (hydroxypropylcellulose) (HPC)
[2] = dose: 800.0 mg/kg/injection, schedule: Q04DX004 (ip), vehicle: Klucel (hydroxypropylcellulose) (HPC)
[3] = dose: 800.0 mg/kg/injection, schedule: Q04DX004 (ip), vehicle: saline with Tween-80
[4] = dose: 200.0 mg/kg/injection, schedule: Q04DX004 (ip), vehicle: Klucel (hydroxypropylcellulose) (HPC)
[5] = dose: 40.0 mg/kg/injection, schedule: Q04DX004 (ip), vehicle: saline
[6] = dose: 100.0 mg/kg/injection, schedule: Q04DX004 (ip), vehicle: saline with Tween-80
[7] = dose: 300.0 mg/kg/injection, schedule: Q04DX004 (ip), vehicle: Klucel (hydroxypropylcellulose) (HPC)

## CCC1(O)C(=O)OCc2c1cc1n(c2=O)Cc2cc3cc(N)ccc3nc2-1 (centres undefined)
dose: 3.75 mg/kg/injection, schedule: Q04DX004 (ip), vehicle: suspension in saline
  T/C: 141 % of control
dose: 5.0 mg/kg/injection, schedule: Q04DX004 (ip), vehicle: suspension in saline
  T/C: 126 % of control
dose: 30.0 mg/kg/injection, schedule: Q04DX004 (ip), vehicle: suspension in saline
  survivor count: 4 of 10 on day 14
dose: 60.0 mg/kg/injection, schedule: Q04DX004 (ip), vehicle: suspension in saline
  survivor count: 0 of 10 on day 14

## O=C(Nc1ccc(Cl)c(Cl)c1)C1C(=O)C(=O)N(c2ccc(Cl)c(Cl)c2)C1=O (centres undefined)
[1]
  survivor count: 9 of 10 on day 14
[2]
  survivor count: 6 of 10 on day 14

## COCCCNC1=C(C#N)C(=O)NC2(CCCC2)S1
[3]
  survivor count: 5 of 10 on day 14

## Cc1c(-c2ccc(C3CCCCC3)cc2)nc2ccc(F)cc2c1C(=O)O
[4]
  T/C: 135 % of control (2×)
[1]
  T/C: 127 and 135 % of control
[2]
  T/C: 130 % of control [8 of 10 alive on day 14]

## CC(=O)c1cccc(NC2C(N)C(NC(=O)N(C)C)(C(C)O)C(C)(O)C2(O)COC(=O)c2c(C)cccc2O)c1 (centres undefined)
dose: 20.0 mg/kg/injection, schedule: Q04DX004 (ip), vehicle: saline
  T/C: 145 % of control
[5]
  T/C: 134 % of control
  survivor count: 0 of 10 on day 14

## CCCCCCN1CCN(Cc2ccc(N(CC)CC)cc2)C(=O)C1=O
dose: 100.0 mg/kg/injection, schedule: Q04DX004 (ip), vehicle: Klucel (hydroxypropylcellulose) (HPC)
  T/C: 131 % of control
[4]
  survivor count: 3 of 10 on day 14
[1]
  survivor count: 0 of 10 on day 14

## COc1cc(C2CC(C)(O)Oc3cc4c(cc32)OCO4)cc(OC)c1OC (centres undefined)
dose: 50.0 mg/kg/injection, schedule: Q04DX004 (ip), vehicle: saline with Tween-80
  T/C: 130 % of control [8 of 10 alive on day 14]
[6]
  T/C: 130 % of control [9 of 10 alive on day 14]
  survivor count: 4 of 10 on day 14
dose: 200.0 mg/kg/injection, schedule: Q04DX004 (ip), vehicle: saline with Tween-80
  survivor count: 0 of 10 on day 14 and 7 of 10 on day 14
dose: 400.0 mg/kg/injection, schedule: Q04DX004 (ip), vehicle: saline with Tween-80
  survivor count: 0 of 10 on day 14
[3]
  survivor count: 0 of 10 on day 14

## Cc1noc2nc(-c3ccccc3)cc(N3CCN(C)CC3)c12
dose: 400.0 mg/kg/injection, schedule: Q04DX004 (ip), vehicle: other
  survivor count: 3 of 10 on day 14

## CC(C)N1C(=O)N(Cl)C2C1N(Cl)C(=O)N2Cl (centres undefined)
dose: 100.0 mg/kg/injection, schedule: Q04DX004 (ip), vehicle: saline
  survivor count: 3 of 10 on day 14
dose: 200.0 mg/kg/injection, schedule: Q04DX004 (ip), vehicle: saline
  survivor count: 0 of 10 on day 14
dose: 400.0 mg/kg/injection, schedule: Q04DX004 (ip), vehicle: saline
  survivor count: 0 of 10 on day 14
dose: 800.0 mg/kg/injection, schedule: Q04DX004 (ip), vehicle: saline
  survivor count: 0 of 10 on day 14

## COC(=O)Nc1cccc(-c2nc3ccc(NC(=O)OC)cc3c(=O)n2-c2ccccc2)c1
dose: 60.0 mg/kg/injection, schedule: Q04DX004 (ip), vehicle: Klucel (hydroxypropylcellulose) (HPC)
  T/C: 139 % of control [9 of 10 alive on day 14]
dose: 90.0 mg/kg/injection, schedule: Q04DX004 (ip), vehicle: Klucel (hydroxypropylcellulose) (HPC)
  T/C: 141 % of control
[4]
  survivor count: 2 of 10 on day 14
[7]
  survivor count: 2 of 9 on day 14

## COc1cc(C(=O)c2cc3c(cc2C)OCO3)cc(OC)c1OC
[7]
  T/C: 126 % of control [9 of 10 alive on day 14]
dose: 600.0 mg/kg/injection, schedule: Q04DX004 (ip), vehicle: Klucel (hydroxypropylcellulose) (HPC)
  survivor count: 2 of 10 on day 14 and 10 of 10 on day 14
dose: 1200.0 mg/kg/injection, schedule: Q04DX004 (ip), vehicle: Klucel (hydroxypropylcellulose) (HPC)
  survivor count: 0 of 10 on day 14

## CCN(CC)CCn1[nH]c2c3ccc(=O)cc3sc3c(NCCN)ccc1c32
dose: 3.12 mg/kg/injection, schedule: Q04DX004 (ip), vehicle: water
  T/C: 145 % of control
dose: 3.13 mg/kg/injection, schedule: Q04DX004 (ip), vehicle: water
  T/C: 140 % of control
dose: 50.0 mg/kg/injection, schedule: Q04DX004 (ip), vehicle: water
  survivor count: 0 of 10 on day 14 and 1 of 10 on day 14

## COc1cc(NCc2ccc3nc(N)nc(N)c3c2C)cc(OC)c1OC
dose: 7.5 mg/kg/injection, schedule: Q04DX004 (ip), vehicle: Klucel (hydroxypropylcellulose) (HPC)
  T/C: 134 % of control
dose: 15.0 mg/kg/injection, schedule: Q04DX004 (ip), vehicle: Klucel (hydroxypropylcellulose) (HPC), evaluated on day 34
  T/C: 128 % of control
dose: 15.0 mg/kg/injection, schedule: Q04DX004 (ip), vehicle: Klucel (hydroxypropylcellulose) (HPC), evaluated on day 60
  T/C: 130 and 135 % of control
dose: 30.0 mg/kg/injection, schedule: Q04DX004 (ip), vehicle: Klucel (hydroxypropylcellulose) (HPC)
  T/C: 142 % of control
dose: 120.0 mg/kg/injection, schedule: Q04DX004 (ip), vehicle: Klucel (hydroxypropylcellulose) (HPC)
  survivor count: 3 of 10 on day 14 and 4 of 10 on day 14

## COc1cc2cc3c(c(O)c2c(O)c1/C=C/C(C)C)C(=O)CC(C)(OC(C)=O)C3 (centres undefined)
dose: 1.25 mg/kg/injection, schedule: Q01DX009 (ip), vehicle: Klucel (hydroxypropylcellulose) (HPC)
  T/C: 99, 105, 111, 112 % of control
dose: 2.5 mg/kg/injection, schedule: Q01DX009 (ip), vehicle: Klucel (hydroxypropylcellulose) (HPC)
  T/C: 104 [9 of 10 alive on day 14], 105 (2×), 113 % of control
dose: 5.0 mg/kg/injection, schedule: Q01DX009 (ip), vehicle: Klucel (hydroxypropylcellulose) (HPC)
  T/C: 104, 114, 116, 117 % of control [9 of 10 alive on day 14]
dose: 5.0 mg/kg/injection, schedule: Q04DX004 (ip), vehicle: Klucel (hydroxypropylcellulose) (HPC)
  T/C: 126 % of control
dose: 10.0 mg/kg/injection, schedule: Q01DX009 (ip), vehicle: Klucel (hydroxypropylcellulose) (HPC)
  survivor count: 0 of 10 on day 14 and 9 of 10 on day 9
dose: 10.0 mg/kg/injection, schedule: Q04DX004 (ip), vehicle: Klucel (hydroxypropylcellulose) (HPC)
  T/C: 132 % of control
dose: 27.78 mg/kg/injection, schedule: Q04DX004 (ip), vehicle: Klucel (hydroxypropylcellulose) (HPC)
  survivor count: 3 of 10 on day 14

## C[C@H](N)C(=O)N[C@@H]1[C@H]2C(=C(O)C[C@@H](O)[C@@H]2O)C(=O)O[C@]1(C)C(Cl)Cl
dose: 0.75 mg/kg/injection, schedule: Q04DX004 (ip), vehicle: saline
  T/C: 128 % of control
dose: 1.3 mg/kg/injection, schedule: Q04DX004 (ip), vehicle: saline
  T/C: 137 % of control
dose: 1.5 mg/kg/injection, schedule: Q04DX004 (ip), vehicle: saline
  T/C: 140 % of control
dose: 3.0 mg/kg/injection, schedule: Q04DX004 (ip), vehicle: saline
  T/C: 138 % of control
dose: 12.0 mg/kg/injection, schedule: Q04DX004 (ip), vehicle: saline
  survivor count: 3 of 10 on day 14

## CNC(=O)/C=C/C1=CN2C(=O)c3ccc(C)c(O)c3NC(OC)C2C1 (centres undefined)
dose: 200.0 micrograms/kg/injection, schedule: Q04DX004 (ip), vehicle: saline
  T/C: 138 % of control

## CN(C)CCN1C(=O)c2cccc3cc(N)cc(c23)C1=O
dose: 21.6 mg/kg/injection, schedule: Q04DX004 (ip), vehicle: acid diluted with saline
  T/C: 139 % of control
dose: 36.0 mg/kg/injection, schedule: Q04DX004 (ip), vehicle: acid diluted with saline
  T/C: 128 % of control
dose: 60.0 mg/kg/injection, schedule: Q04DX004 (ip), vehicle: acid diluted with saline
  survivor count: 6 of 10 on day 14 and 8 of 10 on day 14
dose: 100.0 mg/kg/injection, schedule: Q04DX004 (ip), vehicle: acid diluted with saline
  survivor count: 0 of 10 on day 14
